Assay results as given in patent US20140141023A1 (PIERRE FABRE MEDICAMENT, published 2014).
No constants are given. Whether binding was seen depends on the method and setting. Some results given as binding are weak or reduced against the parent protein; the word gives no strength.

The chains behind the UniProt entries cited, without tags or fusion partners. Where a name states a change or a piece, a line headed by the entry shows the natural chain unless it says otherwise. A line that says so, or that is headed by a name, gives the form on record, which may keep a tag or linker.
recombinant human Axl-Fc (R and D systems, cat N° 154AL/CF) (P30530, form named): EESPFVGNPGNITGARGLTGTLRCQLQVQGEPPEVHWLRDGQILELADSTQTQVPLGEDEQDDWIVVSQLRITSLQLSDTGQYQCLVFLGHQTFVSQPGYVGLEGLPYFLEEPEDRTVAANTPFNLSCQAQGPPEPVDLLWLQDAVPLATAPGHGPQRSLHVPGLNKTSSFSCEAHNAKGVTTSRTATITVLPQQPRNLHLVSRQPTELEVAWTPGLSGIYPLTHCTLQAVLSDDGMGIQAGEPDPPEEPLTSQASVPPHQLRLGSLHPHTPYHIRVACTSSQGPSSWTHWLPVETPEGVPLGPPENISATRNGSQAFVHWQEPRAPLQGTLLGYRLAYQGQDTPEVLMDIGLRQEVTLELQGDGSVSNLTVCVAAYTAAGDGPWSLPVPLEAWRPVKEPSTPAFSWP

Tests used:
[1] = target: recombinant human Axl-Fc (R and D systems, cat N° 154AL/CF) (human) (UniProt P30530); test: competition ELISA: rhAxl-Fc pre-incubated with the antibody, then loaded on coated rhGas6; bound rhAxl-Fc detected with anti-human IgG-HRP
[2] = target: recombinant human Axl-Fc (R and D systems, cat N° 154AL/CF) (human) (UniProt P30530); test: ELISA on coated rhAxl-Fc
[3] = target: recombinant human Axl-Fc (R and D systems, cat N° 154AL/CF) (human) (UniProt P30530); test: ELISA on coated rhAxl-Fc, detection with goat anti-mouse IgG-HRP and TMB

Measured: binding

B1: 1613F12 (antibody, V domains shown)
VH: EVHLQQSGAELVKPGASVKLSCTASGFNIRDTYIHWVKQRPEQGLEWIGRLDPANGHTKYGPNFQGRATMTSDTSSNTAYLQLSSLTSEDTAVYYCARGAYYYGSSGLFYFDYWGQGTTLSVSS
VL: DVQITQSPSYLATSPGETITINCRASKSISKYLAWYQEKPGKTNKLLIYSGSTLQSGVPSRFSGSGSGTDFTLTISSLEPEDFAMYFCQQHHEYPLTFGAGTELELK
notes: also called 1613F12 antibody; 1613F12 Mab
binds: all assays above
